These results are taken from paper PMC11125064.

Sequences of proteins named here, by UniProt entry; tags and fusion partners are left off.
UniProt K4DEK0: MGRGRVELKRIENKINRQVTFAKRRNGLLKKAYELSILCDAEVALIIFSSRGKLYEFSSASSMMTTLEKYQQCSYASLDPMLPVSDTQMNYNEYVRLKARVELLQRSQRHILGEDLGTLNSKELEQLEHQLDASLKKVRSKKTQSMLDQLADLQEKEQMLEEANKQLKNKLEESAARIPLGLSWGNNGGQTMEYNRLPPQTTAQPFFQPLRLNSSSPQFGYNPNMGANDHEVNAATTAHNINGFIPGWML

This test deals with SlMBP21 (tomato (Solanum lycopersicum)) (UniProt K4DEK0). As to the kind of experiment: two-hybrid; yeast two-hybrid; SlMBP21 ORF in pGBKT7 as bait (Y2HGold), ORFs of the partners in pGADT7 as prey (Y187); growth on QDO (SD without Trp, Leu, His, Ade) and blue colour on QDO/X (with X-alpha-Gal); self-activation of the bait was negative.

These are yes or no findings as the source states them, for the method shown. Binding calls can cover weak binding; strength is not graded here.

Consider “SFT (SINGLE FLOWER TRUSS) (from UniProt Q84XL0)”, for which the binding entry is reported as “binds”.
